Reference: the supplement of paper PMC10849652
The list shows a part of the results.

Protein sequences, listed by entry. Tags and fused reporters are not part of them. Lines headed by an entry give the natural chain unless they say otherwise; changes in a name come on top.
UniProt Q4G176: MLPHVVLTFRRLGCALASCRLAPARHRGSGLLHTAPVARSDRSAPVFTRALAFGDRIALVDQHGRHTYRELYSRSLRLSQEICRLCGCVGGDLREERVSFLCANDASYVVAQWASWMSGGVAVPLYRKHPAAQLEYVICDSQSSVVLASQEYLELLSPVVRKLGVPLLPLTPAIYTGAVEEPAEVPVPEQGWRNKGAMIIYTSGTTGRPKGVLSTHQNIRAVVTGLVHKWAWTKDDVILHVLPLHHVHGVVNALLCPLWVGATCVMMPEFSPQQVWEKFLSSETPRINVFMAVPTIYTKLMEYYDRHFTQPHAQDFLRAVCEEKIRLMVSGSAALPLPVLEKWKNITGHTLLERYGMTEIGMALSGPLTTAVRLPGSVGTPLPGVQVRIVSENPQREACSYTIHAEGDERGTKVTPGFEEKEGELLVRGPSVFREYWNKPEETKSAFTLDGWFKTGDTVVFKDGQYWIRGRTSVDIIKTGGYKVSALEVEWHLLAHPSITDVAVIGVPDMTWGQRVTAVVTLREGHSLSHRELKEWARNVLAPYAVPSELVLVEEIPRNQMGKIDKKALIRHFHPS
UniProt P24666: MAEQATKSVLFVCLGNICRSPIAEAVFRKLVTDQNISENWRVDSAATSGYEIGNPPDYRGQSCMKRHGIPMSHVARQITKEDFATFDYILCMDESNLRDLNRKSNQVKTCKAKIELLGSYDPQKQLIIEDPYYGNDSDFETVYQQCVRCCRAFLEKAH
UniProt Q9NZ32, whole entry, looked up: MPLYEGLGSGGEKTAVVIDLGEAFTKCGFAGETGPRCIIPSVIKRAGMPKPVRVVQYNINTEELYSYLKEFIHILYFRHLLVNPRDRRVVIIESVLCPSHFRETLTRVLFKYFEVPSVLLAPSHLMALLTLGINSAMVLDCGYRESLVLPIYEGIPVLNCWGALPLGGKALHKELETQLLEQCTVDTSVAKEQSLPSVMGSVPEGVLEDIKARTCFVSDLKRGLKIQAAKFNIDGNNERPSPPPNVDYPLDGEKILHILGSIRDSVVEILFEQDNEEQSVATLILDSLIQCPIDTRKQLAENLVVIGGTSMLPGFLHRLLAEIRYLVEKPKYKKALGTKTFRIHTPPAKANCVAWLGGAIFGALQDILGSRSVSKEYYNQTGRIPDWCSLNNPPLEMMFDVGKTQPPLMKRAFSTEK
UniProt O95573: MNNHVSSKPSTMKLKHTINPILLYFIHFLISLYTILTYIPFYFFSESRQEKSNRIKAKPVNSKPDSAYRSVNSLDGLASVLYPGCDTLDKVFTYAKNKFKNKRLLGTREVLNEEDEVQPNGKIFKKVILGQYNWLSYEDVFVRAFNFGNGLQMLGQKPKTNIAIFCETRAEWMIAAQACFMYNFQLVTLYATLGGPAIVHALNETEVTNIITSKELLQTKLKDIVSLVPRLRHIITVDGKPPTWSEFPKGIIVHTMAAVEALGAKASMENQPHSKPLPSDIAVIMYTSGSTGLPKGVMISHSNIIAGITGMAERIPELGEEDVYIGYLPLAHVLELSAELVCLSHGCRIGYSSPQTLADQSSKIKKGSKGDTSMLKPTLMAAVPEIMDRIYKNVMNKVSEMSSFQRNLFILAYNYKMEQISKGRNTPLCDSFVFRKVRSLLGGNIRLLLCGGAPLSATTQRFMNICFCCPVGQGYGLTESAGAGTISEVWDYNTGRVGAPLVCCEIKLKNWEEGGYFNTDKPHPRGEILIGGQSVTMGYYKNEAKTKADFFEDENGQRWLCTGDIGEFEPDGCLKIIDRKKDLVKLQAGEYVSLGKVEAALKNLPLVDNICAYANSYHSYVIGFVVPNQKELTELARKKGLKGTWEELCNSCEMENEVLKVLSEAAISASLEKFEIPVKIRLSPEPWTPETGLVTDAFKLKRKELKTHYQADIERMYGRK
UniProt Q99758: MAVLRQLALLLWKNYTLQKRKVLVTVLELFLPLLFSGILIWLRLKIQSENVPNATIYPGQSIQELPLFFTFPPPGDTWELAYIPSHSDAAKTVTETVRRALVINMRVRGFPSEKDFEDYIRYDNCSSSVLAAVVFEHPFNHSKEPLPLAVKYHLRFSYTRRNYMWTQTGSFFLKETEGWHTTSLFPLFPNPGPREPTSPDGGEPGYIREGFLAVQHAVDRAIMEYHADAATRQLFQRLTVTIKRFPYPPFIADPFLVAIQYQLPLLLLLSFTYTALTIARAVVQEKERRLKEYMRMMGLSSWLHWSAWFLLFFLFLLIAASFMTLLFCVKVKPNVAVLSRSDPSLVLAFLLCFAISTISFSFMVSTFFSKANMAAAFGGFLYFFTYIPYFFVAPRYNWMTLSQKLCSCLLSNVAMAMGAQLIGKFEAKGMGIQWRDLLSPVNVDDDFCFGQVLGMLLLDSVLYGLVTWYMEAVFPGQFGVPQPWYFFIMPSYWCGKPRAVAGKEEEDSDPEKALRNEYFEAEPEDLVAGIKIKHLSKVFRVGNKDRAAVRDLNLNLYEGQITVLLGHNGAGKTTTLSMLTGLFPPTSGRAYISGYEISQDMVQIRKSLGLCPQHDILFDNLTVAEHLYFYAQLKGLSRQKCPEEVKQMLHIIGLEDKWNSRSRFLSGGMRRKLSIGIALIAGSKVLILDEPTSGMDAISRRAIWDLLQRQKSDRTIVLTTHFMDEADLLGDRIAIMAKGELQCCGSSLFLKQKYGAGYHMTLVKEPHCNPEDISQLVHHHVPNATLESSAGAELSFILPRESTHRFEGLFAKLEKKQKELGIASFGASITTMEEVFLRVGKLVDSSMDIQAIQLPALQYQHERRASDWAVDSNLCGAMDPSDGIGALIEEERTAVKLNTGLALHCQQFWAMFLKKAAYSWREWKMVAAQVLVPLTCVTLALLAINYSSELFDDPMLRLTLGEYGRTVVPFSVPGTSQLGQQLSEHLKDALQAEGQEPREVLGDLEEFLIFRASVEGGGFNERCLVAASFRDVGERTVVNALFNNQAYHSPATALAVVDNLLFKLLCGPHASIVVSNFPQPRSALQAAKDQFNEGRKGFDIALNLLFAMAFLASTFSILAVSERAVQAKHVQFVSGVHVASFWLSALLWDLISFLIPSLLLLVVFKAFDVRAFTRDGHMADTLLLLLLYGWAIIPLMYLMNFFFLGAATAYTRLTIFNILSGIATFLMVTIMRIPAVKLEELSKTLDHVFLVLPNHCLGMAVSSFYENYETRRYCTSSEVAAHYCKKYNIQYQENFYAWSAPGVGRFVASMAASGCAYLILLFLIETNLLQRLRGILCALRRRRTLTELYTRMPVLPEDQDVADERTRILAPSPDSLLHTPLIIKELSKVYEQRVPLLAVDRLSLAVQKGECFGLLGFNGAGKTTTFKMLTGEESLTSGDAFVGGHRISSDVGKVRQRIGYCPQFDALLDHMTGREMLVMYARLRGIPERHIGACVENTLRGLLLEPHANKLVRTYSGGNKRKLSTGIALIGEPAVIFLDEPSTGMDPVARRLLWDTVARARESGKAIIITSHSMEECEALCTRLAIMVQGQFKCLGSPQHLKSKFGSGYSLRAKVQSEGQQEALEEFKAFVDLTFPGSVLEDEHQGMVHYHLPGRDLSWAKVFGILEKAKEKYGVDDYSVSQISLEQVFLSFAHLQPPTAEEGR
UniProt Q9NUJ1: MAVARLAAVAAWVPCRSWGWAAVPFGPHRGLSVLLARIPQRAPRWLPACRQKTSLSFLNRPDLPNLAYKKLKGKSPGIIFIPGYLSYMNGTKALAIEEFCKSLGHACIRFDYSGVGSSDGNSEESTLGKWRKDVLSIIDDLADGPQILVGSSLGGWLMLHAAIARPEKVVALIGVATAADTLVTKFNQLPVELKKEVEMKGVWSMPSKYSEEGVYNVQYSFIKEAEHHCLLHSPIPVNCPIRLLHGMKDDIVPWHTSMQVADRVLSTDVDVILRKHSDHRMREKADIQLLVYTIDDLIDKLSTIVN
UniProt O43707, whole entry, looked up: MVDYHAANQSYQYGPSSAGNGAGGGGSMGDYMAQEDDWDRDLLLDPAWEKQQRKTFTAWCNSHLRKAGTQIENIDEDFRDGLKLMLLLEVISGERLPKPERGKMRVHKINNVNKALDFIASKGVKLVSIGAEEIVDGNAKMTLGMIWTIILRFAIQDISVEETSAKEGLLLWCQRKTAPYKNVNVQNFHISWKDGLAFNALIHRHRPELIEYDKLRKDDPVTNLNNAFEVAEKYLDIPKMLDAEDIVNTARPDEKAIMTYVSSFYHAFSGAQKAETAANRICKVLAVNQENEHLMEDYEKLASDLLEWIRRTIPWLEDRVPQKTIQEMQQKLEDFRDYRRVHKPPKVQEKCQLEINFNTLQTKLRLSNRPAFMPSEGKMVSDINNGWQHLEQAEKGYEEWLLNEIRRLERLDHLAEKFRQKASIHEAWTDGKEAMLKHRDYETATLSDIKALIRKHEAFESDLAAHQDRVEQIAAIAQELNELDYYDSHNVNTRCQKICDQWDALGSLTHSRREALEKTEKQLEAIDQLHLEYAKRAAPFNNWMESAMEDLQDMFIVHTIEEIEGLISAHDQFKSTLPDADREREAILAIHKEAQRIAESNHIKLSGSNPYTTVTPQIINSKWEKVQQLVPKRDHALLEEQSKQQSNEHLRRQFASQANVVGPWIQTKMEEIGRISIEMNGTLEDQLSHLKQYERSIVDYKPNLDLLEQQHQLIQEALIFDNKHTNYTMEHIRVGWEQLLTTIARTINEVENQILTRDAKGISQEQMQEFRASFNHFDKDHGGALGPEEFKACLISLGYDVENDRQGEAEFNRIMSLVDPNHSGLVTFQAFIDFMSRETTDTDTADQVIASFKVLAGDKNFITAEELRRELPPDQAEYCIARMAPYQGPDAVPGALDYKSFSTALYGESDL
UniProt Q13444: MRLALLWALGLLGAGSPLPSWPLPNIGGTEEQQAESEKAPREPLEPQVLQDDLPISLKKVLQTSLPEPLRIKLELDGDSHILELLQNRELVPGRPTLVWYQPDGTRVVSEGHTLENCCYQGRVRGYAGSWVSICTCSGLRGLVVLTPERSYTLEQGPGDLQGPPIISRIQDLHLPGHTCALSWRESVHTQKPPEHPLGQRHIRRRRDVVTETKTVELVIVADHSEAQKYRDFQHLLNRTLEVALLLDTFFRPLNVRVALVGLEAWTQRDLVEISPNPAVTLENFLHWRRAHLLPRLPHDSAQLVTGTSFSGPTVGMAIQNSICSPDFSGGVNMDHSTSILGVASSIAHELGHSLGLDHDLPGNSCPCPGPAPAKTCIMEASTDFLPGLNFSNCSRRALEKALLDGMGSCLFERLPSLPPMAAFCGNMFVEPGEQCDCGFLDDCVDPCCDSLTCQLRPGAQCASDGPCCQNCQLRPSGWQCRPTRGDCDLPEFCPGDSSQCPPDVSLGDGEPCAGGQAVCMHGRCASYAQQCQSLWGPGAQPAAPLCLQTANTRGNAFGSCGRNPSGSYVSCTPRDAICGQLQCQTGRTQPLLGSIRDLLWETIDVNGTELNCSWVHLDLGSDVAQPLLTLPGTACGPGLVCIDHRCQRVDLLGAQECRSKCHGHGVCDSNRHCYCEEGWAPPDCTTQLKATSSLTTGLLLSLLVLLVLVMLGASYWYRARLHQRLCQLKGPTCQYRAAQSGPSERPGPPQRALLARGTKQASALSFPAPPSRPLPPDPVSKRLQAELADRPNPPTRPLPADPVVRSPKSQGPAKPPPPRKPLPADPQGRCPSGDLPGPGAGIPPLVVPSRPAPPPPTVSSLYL
UniProt P33121: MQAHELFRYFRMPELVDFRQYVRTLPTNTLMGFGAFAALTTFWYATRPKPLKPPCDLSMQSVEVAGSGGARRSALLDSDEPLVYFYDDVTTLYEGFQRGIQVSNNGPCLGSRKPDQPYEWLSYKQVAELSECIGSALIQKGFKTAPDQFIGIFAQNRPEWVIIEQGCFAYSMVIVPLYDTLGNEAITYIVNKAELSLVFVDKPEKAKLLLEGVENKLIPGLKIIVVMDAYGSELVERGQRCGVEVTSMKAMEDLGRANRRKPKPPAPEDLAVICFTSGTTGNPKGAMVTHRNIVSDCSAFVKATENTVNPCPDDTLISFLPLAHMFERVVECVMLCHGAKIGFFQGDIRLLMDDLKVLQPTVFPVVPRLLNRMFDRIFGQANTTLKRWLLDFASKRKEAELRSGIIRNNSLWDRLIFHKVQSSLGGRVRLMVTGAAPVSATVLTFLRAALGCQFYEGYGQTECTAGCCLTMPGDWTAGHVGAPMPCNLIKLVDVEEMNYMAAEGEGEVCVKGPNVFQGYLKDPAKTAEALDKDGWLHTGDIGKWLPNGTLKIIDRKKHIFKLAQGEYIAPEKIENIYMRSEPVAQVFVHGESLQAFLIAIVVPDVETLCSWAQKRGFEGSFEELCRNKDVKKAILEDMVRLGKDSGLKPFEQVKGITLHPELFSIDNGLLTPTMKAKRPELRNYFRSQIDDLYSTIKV
UniProt Q7Z6V5: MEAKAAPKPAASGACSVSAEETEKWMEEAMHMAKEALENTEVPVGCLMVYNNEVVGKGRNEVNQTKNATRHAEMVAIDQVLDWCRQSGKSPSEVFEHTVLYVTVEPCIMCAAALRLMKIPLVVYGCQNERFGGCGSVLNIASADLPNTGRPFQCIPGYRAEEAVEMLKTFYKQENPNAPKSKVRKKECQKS

Columns and labels:
Experiment in all cases: log2 fold change, soluble protein after heating vs DMSO (PISA); higher = thermal stabilisation; K562 cells, 10 uM, 30 min; active = over 0.2 and 3.5 SD of the protein, either way, in both replicates (recomputed)
[1] = compound: CC1=C(C=C(C=C1)NC(=O)C2=CC(=CC=C2)C(C)(C)C#N)NC3=CC4=C(C=C3)N=CN(C4=O)C
How it was run: (§1)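 K562 cells at 2×10^6 cells/mL were exposed to 10 μM compound for 30 min, then aliquots were heated for 3 min across 48°C-58°C, pooled, and extracted in PBS containing 0.5% NP-40 at 4°C. The supernatant after 21,000xg for 90 min was taken as soluble protein and measured by TMTpro 16plex LC-MS/MS with channel sums equalised. Thermal stability is reported relative to control samples, with values from duplicates. Fold changes are given on a log2 scale.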

[2] = compound: CC1=C(C=C(C=C1)NC(=O)C2=CC(=CC=C2)N(C)C)NC(=O)C3=CC=C(C=C3)O
How it was run: as §1

[3] = compound: CC1=NC(=CC=C1)C2=C(N=C(N2)C(C)(C)C)C3=CC4=NC=CN=C4C=C3
How it was run: as §1

Nexturastat A = compound: CCCCN(Cc1ccc(C(=O)NO)cc1)C(=O)Nc1ccccc1 [Nexturastat A]
How it was run: as §1

vemurafenib = compound: CCCS(=O)(=O)Nc1ccc(F)c(C(=O)c2c[nH]c3ncc(-c4ccc(Cl)cc4)cc23)c1F [vemurafenib]
How it was run: as §1

[4] = compound: CCCc1cc(C)[nH]c(=O)c1CNC(=O)c1cc(-c2ccnc(N3CCN(C)CC3)c2)cc2c1cnn2C(C)C
How it was run: as §1

givinostat = compound: CCN(CC)Cc1ccc2cc(COC(=O)Nc3ccc(C(=O)NO)cc3)ccc2c1 [givinostat]
How it was run: as §1

barasertib = compound: CCN(CCCOc1ccc2c(Nc3cc(CC(=O)Nc4cccc(F)c4)[nH]n3)ncnc2c1)CCOP(=O)(O)O [barasertib]
How it was run: as §1

[5] = compound: CC1=CC=C(C=C1)SC2=C3C=C(SC3=CN=C2)C(=O)N
How it was run: as §1

[6] = compound: CCCS(=O)(=O)Nc1ccc(F)c(C(=O)c2c[nH]c3ncc(Cl)cc23)c1F
How it was run: as §1

Measured: log2 fold change

AAK1, A0A096LP25
inactive: [1] -0.131 | [2] -0.011 | [3] 0 | Nexturastat A 0.068 | vemurafenib -0.016 | [4] -0.026 | givinostat 0.056 | barasertib -0.004

ACSF3 (UniProt Q4G176)
inactive: [1] -0.002 | [2] 0.038 | [5] 0.007 | [3] 0.023 | Nexturastat A -0.005 | vemurafenib 0.029 | [6] 0.003 | [4] 0.008 | givinostat -0.022 | barasertib 0.051

ABCB8 (UniProt Q9NUT2)
inactive: [1] 0.024 | [2] -0.023 | [5] -0.028 | [3] -0.042 | Nexturastat A -0.075 | vemurafenib -0.018 | [6] 0.009 | [4] 0.007 | givinostat 0.004 | barasertib 0.031

ABL1 isoform 2 (UniProt P00519)
inactive: [1] 0.073 | [2] 0.007 | [5] -0.007 | Nexturastat A 0.181 | vemurafenib 0.027 | [6] 0.03 | [4] -0.002 | givinostat 0.139 | barasertib 0.025

ABHD6 (UniProt Q9BV23)
inactive: [1] 0.602 | [2] 0.059 | [5] -0.077 | [6] 0

ACP1 isoform 2 (UniProt P24666)
inactive: [1] 0.008 | [2] -0.013 | [5] 0.025 | [3] -0.008 | Nexturastat A 0.08 | vemurafenib 0.031 | [6] 0.026 | [4] 0.043 | givinostat 0.058 | barasertib 0.074

ACADM isoform 2 (UniProt P11310)
inactive: [1] -0.018 | [2] -0.024 | [5] 0.001 | [3] 0.017 | Nexturastat A 0.009 | vemurafenib 0.009 | [6] -0.015 | [4] -0.042 | givinostat -0.033 | barasertib 0

ADAMTS5 (UniProt Q9UNA0)
inactive: [1] -0.171 | [2] -0.022 | [3] -0.164 | vemurafenib -0.095 | [4] -0.572 | givinostat 0.222 | barasertib 0.02

ABCC4 (UniProt O15439)
inactive: [1] 0.011 | [2] -0.016 | [5] -0.01 | [3] 0.016 | Nexturastat A -0.025 | vemurafenib -0.002 | [6] -0.002 | [4] -0.015 | givinostat -0.017 | barasertib 0.005

2 records picked at random from those above, as already listed:
ABCC4 (UniProt O15439)
inactive: [1] 0.011 | [2] -0.016 | [5] -0.01 | [3] 0.016 | Nexturastat A -0.025 | vemurafenib -0.002 | [6] -0.002 | [4] -0.015 | givinostat -0.017 | barasertib 0.005

ADAMTS5 (UniProt Q9UNA0)
inactive: [1] -0.171 | [2] -0.022 | [3] -0.164 | vemurafenib -0.095 | [4] -0.572 | givinostat 0.222 | barasertib 0.02

Continued:

ACTR10 (UniProt Q9NZ32)
inactive: [1] -0.017 | [2] -0.011 | [5] -0.047 | [3] -0.059 | Nexturastat A 0.008 | vemurafenib 0 | [6] -0.024 | [4] 0.001 | givinostat -0.033 | barasertib 0.066

ACAA1 (UniProt P09110)
inactive: [1] 0.029 | [2] 0.034 | [5] 0.013 | [3] 0.039 | Nexturastat A 0 | vemurafenib 0.017 | [6] 0 | [4] -0.01 | givinostat -0.038 | barasertib -0.022

ACSL3 (UniProt O95573)
inactive: [1] 0.005 | [2] -0.051 | [5] 0.1 | [3] 0.029 | Nexturastat A 0.008 | vemurafenib 0 | [6] 0.038 | [4] -0.016 | givinostat 0.032 | barasertib 0.039

ABCA3 (UniProt Q99758)
inactive: [1] -0.029 | [2] 0.011 | [5] -0.008 | [3] -0.035 | Nexturastat A -0.142 | vemurafenib -0.161 | [6] -0.112 | givinostat 0.059 | barasertib 0.196

ACTBL2 (UniProt Q562R1)
inactive: [1] 0.238 | [2] 0.243 | [5] -0.385 | Nexturastat A -0.049 | vemurafenib 0.139 | [6] -0.41 | [4] 0.073 | givinostat -0.342 | barasertib 0.161

ABHD10 (UniProt Q9NUJ1)
inactive: [1] -0.011 | [2] 0.024 | [5] 0.02 | [3] 0.015 | Nexturastat A -0.04 | vemurafenib -0.015 | [6] -0.025 | [4] -0.04 | givinostat -0.14 | barasertib -0.014

ABHD5 (UniProt Q8WTS1)
inactive: [1] -0.085 | [2] -0.048 | [5] 0.006 | [3] -0.001 | [6] 0.158 | givinostat 0.09 | barasertib 0.041

ACOT9 isoform 4 (UniProt Q9Y305)
inactive: [1] 0.065 | [2] -0.215 | [5] -0.034 | [3] -0.03 | Nexturastat A 0.151 | vemurafenib -0.049 | [6] 0.029 | [4] 0.049 | givinostat 0.011 | barasertib -0.03

ACO1 (UniProt P21399)
inactive: [1] -0.003 | [2] -0.003 | [5] -0.006 | [3] 0.028 | Nexturastat A -0.079 | vemurafenib 0.004 | [6] 0.034 | [4] -0.058 | givinostat -0.056 | barasertib 0.025

ACTN4 (UniProt O43707)
inactive: [1] -0.013 | [2] 0.039 | [5] -0.01 | [3] 0.006 | Nexturastat A -0.005 | vemurafenib -0.008 | [6] -0.006 | [4] -0.041 | givinostat -0.011 | barasertib -0.026

ADAM15 (UniProt Q13444)
inactive: [1] -0.045 | [2] 0.056 | [5] 0 | [3] -0.14 | Nexturastat A -0.016 | vemurafenib -0.022 | [6] 0.007 | givinostat 0.308 | barasertib -0.043

ACSL1 (UniProt P33121)
inactive: [1] 0.01 | [2] 0.01 | [5] 0.031 | [3] 0.056 | Nexturastat A -0.115 | vemurafenib -0.021 | [6] 0.041 | [4] -0.018 | givinostat -0.034 | barasertib -0.002

ACAD9 (UniProt Q9H845)
inactive: [1] -0.022 | [2] 0.007 | [5] 0.007 | [3] -0.001 | Nexturastat A -0.061 | vemurafenib 0.053 | [6] -0.019 | [4] -0.009 | givinostat -0.012 | barasertib -0.011

ABL2 (UniProt P42684)
inactive: [1] -0.471 | [2] -0.248 | [3] -0.126 | Nexturastat A 0 | barasertib -0.036

ABHD16A (UniProt O95870)
inactive: [1] 0.01 | [2] -0.084 | [5] -0.051 | [3] -0.057 | Nexturastat A 0.118 | vemurafenib -0.001 | [6] -0.036 | [4] 0.09 | givinostat 0.037 | barasertib 0.008

ADAT2 (UniProt Q7Z6V5)
inactive: [1] 0.039 | [2] -0.008 | [5] 0.064 | [3] 0.105 | Nexturastat A -0.088 | vemurafenib 0.023 | [6] 0.024 | [4] -0.041 | givinostat -0.082 | barasertib 0.035

AAAS (UniProt Q9NRG9)
inactive: [1] 0.027 | [2] 0.019 | [5] 0.012 | [3] 0.038 | Nexturastat A -0.011 | vemurafenib 0.061 | [6] 0.038 | [4] 0.006 | givinostat 0.009 | barasertib 0.019

ACTN4 (UniProt K7EJH8)
inactive: [1] -0.031 | [2] 0.068 | [5] 0.007 | [3] 0.003 | Nexturastat A -0.084 | [6] -0.032 | [4] -0.023 | givinostat 0.012 | barasertib -0.029
